Data reported in patent publication KR20120049206A.
Residue numbers refer to the chain shown, from its start. No constants are given. Whether binding was seen depends on the method and setting. Where a sequence is shown, tags or fusion partners need not be part of it.

B1: GFP 단일 도메인 항체 2G2 (VHH)
VHH: EWGGSVQAGGSLRLSCSASGFASSPGCMAWFRQAPGKEREGVAEIATRSGSAYYADSVKGRFTISQDNAKNTLYLQMNSLKPEDTAIYYCAASRLRCTPAADFSRIPAYAMDYWGKGTQVTVSS
B2: GFP 단일 도메인 항체 7C8 (VHH)
VHH: SWGGSVQTGGSLGLSCTTSLDGYSSVCMGWFRQTPGKEREGVATIHRAFGDTYYADSVKGRFTISEDSAKNTVYLRMNSLKPEDTGMYYCAAGRPKSGSAWNCRDAEYVYWGQGTQVTVSS
B3: GFP 단일 도메인 항체 13H2 (VHH)
VHH: ESGGGSVQAGGSLKLSCAASGYISSNCMGWFRQAPGKEREGVASIYRGYGNTYYTDSVKGRFTISQDNAKNTIYLQMNSLKPEDTARYYCAAVNCARWPFDREYNYWGQGTQVTVSS
B4: GFP 단일 도메인 항체 9H11 (VHH)
VHH: SGGGSVQSGGSLRLTCAASGRTSSISYMGWFRQSPGKEREGVAFIDRRDSTTYADLVKGRFTISRDNARNTLYLQMNSLKPEDTAMYYCAARIRGYYSRPALSADFDYWGQGTQVTVSS
B5: GFP 단일 도메인 항체 10A8 (VHH)
VHH: SLGGGSVQAGGSLRLSCAASGFAMSTYCMAWFRQAPGKEREGVATLSPLGILSHYADSVKGRFTVSRDNAKNTLSLQMNSLIPEDTAMYYCAAMPRPDGGAHGCVSWLAYNFWGQGTQVTVSS
B6: GFP 단일 도메인 항체 2G9 (VHH)
VHH: ESGGGSVQAGGSLRLSCVVSRSTYTSNCMGWFRQAPGKEREEVASIYTGGGITYYADSVKGRFTVSQDNAKNTVYLQMNSLKPEDTAMYYCAAGRGSWSCGMGPDEYKYWGQGTQVTVSS
B7: GFP 단일 도메인 항체 8G4 (VHH)
VHH: B6 VHH with V18A, V19A, S20P, G51D, V65M, K71R, N72S, M102S
B8: GFP 단일 도메인 항체 3H8 (VHH)
VHH: ESGGGSVQSGGSLRLSCVASGSTDRPAYMAWFRQAPGKEREGVATIYTEFGSQYYADSVKGRFTISQDNAKRTAYLQMNSLKPEDTAMYYCAATTAFRVLGTRKLDAAQYAYWGQGTQVTVSS
B9: GFP 단일 도메인 항체 13C2 (VHH)
VHH: GGGGSVQAGGSLRLSCAASGYISDSHGRNCMGWFRQAPGKEREAVARIYSRLGTTYYADSVKGRFTISRDNAKNTLYLQMHSLKPEDTAMYYCAAVGGLCIDKETPTDYPFWGQGTQVTVSS
B10: GFP 단일 도메인 항체 11F5 (VHH)
VHH: ESGGGSVQSGGSLRLSCSGVTGSDYCLGWFRQAPGREREGVAASSRYGSTYYGDFVRGRFTISRDSAKNTLILQMNNLQPEDTAMYYCAASRRVGSCSTYERVFAYWGQGTQVTVSS
B11: GFP 단일 도메인 항체 8B9 (VHH)
VHH: ESGGGSVQAGGSLRLSCAASGYTVSRGCMAWFRQVPGKEREGVAAINSGDGTTYYADSVKGRFTISQDNAKNTVYLQMNSLEPEDTSIYYCAASRLRCPWNLVSASWYDFWGQGTQVTVSS

target: RFP (Red Fluorescent Protein); assay: phage ELISA, RFP coated on the plate, anti-M13-HRP

binding	Binder
no binding	B1
no binding	B2
no binding	B3
no binding	B4
no binding	B5
no binding	B6
no binding	B7
no binding	B8
no binding	B9
no binding	B10
no binding	B11
